This is one part of the list. Single values of this set are uncertain.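 Tm was set to 64 °C where no melting was found, and many curves are irregular.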
Compound: CCc1cnccc1C(=O)Nc1cc2c(cc1F)NC(=O)CC2
Assay: melting temperature shift (DMSO Tm minus MBE1-treated Tm) in cellular thermal proteome profiling; higher = less thermal stabilization by MBE1 (negative = stabilized by MBE1)
Details: A375; MBE1 concentration: 100 nM

By UniProt entry, the sequences of proteins in these tests, tags left out. Where a name states a change or a piece, a line headed by the entry shows the natural chain unless it says otherwise.
UniProt Q99497, whole entry: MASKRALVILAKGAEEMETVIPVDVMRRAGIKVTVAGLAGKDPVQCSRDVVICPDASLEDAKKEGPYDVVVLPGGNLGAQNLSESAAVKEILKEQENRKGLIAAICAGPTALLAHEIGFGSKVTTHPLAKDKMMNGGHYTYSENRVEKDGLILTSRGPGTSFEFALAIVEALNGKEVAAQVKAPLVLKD
UniProt Q96PY6: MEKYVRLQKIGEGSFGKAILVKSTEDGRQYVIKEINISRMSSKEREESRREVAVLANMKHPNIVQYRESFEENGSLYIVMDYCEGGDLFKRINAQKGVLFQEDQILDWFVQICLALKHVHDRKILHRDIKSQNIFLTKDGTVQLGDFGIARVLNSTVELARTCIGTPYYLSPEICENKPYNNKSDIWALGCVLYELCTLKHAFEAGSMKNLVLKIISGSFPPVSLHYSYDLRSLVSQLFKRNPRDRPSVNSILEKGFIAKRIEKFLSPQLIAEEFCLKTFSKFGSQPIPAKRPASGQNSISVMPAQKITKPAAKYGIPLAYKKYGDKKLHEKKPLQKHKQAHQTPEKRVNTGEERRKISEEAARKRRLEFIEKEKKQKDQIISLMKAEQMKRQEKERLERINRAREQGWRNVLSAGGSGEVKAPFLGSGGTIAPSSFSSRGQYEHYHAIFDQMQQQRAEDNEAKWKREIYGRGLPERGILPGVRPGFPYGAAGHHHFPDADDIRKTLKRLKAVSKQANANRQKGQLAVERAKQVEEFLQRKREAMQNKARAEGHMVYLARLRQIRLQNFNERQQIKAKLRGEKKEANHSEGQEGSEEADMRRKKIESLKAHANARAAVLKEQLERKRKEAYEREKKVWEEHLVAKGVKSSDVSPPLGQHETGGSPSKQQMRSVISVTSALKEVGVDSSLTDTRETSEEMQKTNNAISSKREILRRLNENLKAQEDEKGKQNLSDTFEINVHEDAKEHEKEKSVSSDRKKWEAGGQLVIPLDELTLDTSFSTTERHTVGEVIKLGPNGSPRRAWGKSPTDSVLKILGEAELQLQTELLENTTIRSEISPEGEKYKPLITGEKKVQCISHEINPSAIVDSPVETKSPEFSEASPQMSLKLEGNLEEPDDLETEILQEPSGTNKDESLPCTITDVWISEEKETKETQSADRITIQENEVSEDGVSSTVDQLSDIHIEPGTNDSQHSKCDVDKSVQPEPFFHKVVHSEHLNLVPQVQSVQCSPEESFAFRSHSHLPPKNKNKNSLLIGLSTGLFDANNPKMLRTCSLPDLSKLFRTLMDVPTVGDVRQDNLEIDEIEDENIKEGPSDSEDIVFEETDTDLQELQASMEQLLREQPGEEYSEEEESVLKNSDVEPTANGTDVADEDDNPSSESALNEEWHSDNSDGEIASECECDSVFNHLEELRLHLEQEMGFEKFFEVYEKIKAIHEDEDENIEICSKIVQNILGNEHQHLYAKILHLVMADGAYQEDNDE
UniProt Q96LT7: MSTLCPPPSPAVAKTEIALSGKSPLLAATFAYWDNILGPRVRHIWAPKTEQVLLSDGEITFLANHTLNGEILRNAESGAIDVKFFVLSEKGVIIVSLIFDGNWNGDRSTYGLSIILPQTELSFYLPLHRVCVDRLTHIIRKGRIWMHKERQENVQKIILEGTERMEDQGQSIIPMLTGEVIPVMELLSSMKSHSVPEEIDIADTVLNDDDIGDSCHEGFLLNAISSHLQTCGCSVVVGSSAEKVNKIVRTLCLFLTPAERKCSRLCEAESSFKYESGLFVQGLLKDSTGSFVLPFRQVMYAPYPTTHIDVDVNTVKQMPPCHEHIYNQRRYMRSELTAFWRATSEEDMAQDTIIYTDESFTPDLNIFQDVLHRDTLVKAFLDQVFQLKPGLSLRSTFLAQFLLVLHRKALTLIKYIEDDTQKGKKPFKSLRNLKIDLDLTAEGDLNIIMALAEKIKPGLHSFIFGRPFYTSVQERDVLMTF
UniProt Q96RQ1: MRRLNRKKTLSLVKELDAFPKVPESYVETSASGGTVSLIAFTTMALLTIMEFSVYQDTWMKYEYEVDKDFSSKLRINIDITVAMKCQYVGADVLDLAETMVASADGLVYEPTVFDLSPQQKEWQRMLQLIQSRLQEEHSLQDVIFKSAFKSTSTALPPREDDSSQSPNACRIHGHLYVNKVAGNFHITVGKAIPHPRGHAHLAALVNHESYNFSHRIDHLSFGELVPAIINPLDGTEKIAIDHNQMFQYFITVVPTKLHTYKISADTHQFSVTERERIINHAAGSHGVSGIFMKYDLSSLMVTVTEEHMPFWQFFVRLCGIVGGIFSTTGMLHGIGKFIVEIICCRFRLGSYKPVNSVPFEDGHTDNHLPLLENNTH
UniProt Q96HY6: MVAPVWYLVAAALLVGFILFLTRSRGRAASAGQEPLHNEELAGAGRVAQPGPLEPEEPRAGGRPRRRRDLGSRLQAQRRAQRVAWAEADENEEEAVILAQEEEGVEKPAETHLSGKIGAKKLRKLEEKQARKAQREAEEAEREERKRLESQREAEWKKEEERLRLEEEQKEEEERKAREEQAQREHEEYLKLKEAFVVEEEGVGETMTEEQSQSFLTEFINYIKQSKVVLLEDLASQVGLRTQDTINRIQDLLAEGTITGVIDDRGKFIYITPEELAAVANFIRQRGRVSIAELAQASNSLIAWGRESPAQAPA
UniProt Q96IY1: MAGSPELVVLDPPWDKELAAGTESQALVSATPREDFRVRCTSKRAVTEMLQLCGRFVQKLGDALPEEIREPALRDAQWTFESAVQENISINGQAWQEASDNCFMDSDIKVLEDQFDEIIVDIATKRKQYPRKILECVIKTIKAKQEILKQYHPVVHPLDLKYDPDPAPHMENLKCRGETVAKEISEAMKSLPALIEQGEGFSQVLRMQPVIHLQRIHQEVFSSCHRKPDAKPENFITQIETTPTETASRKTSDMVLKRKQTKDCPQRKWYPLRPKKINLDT
UniProt Q96QZ7: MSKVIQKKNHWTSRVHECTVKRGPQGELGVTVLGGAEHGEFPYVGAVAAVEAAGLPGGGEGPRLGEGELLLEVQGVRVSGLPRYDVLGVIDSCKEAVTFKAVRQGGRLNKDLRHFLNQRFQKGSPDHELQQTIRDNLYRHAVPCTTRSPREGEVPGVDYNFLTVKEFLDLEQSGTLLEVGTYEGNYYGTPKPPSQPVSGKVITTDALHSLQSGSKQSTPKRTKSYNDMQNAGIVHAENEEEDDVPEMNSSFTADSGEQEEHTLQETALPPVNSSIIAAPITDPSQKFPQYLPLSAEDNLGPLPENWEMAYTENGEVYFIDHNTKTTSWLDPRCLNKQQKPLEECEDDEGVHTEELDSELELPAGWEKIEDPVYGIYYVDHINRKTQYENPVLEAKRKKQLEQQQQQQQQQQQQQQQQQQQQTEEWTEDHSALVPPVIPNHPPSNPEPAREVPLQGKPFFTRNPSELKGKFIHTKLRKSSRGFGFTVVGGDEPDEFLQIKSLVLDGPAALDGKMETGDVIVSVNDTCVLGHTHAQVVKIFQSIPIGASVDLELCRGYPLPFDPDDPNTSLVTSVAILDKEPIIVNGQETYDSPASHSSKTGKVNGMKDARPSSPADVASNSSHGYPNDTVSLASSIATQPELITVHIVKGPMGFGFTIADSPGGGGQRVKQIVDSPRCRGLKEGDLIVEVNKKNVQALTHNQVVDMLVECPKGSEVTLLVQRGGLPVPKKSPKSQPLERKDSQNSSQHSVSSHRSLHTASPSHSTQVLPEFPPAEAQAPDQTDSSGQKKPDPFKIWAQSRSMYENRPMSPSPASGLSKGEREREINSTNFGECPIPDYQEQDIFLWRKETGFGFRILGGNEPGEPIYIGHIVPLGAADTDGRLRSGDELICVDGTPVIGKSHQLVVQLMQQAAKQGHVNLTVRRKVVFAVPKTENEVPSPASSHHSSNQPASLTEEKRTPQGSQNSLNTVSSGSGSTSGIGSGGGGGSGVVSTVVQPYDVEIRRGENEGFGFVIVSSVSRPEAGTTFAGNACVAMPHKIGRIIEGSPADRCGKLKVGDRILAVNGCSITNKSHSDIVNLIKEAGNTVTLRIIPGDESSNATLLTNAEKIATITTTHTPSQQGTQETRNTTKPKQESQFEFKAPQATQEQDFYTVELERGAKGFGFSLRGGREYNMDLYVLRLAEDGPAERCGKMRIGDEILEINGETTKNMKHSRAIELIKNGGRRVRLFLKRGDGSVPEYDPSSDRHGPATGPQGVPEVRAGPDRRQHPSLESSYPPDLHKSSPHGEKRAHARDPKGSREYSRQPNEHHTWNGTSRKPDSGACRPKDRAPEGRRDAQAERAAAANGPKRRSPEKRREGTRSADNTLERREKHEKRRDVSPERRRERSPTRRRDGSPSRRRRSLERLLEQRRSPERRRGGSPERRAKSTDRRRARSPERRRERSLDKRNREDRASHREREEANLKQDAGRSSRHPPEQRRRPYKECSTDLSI
UniProt Q99418: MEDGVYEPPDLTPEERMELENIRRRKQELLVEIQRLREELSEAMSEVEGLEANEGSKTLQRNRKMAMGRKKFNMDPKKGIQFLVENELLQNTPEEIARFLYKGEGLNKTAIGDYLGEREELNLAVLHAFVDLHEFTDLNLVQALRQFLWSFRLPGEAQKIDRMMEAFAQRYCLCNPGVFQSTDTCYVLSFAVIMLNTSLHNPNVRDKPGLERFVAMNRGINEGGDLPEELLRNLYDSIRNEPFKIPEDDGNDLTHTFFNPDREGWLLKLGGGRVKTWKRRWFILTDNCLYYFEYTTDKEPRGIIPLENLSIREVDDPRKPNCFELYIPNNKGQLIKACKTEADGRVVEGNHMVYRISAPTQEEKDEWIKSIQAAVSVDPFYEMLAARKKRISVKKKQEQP
UniProt Q96LZ7: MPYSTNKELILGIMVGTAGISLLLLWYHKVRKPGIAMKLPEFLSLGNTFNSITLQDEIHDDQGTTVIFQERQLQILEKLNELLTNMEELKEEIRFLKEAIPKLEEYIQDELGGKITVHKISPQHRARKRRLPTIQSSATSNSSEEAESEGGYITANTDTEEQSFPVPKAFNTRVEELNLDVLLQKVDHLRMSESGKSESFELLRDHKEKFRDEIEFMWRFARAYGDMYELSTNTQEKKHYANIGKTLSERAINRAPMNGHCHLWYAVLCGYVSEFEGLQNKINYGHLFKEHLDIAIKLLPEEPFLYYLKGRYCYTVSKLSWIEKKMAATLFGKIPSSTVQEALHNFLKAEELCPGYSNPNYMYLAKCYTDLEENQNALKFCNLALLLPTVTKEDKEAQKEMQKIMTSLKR
UniProt Q96MH6: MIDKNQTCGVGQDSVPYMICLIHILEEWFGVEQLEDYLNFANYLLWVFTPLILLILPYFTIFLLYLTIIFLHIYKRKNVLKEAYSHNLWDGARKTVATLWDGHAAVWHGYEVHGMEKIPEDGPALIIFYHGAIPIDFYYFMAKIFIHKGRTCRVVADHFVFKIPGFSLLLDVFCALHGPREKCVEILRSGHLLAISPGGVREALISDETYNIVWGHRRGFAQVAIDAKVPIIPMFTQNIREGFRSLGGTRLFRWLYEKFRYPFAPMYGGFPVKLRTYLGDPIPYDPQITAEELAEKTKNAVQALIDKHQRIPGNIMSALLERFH
UniProt Q96RT8, whole entry: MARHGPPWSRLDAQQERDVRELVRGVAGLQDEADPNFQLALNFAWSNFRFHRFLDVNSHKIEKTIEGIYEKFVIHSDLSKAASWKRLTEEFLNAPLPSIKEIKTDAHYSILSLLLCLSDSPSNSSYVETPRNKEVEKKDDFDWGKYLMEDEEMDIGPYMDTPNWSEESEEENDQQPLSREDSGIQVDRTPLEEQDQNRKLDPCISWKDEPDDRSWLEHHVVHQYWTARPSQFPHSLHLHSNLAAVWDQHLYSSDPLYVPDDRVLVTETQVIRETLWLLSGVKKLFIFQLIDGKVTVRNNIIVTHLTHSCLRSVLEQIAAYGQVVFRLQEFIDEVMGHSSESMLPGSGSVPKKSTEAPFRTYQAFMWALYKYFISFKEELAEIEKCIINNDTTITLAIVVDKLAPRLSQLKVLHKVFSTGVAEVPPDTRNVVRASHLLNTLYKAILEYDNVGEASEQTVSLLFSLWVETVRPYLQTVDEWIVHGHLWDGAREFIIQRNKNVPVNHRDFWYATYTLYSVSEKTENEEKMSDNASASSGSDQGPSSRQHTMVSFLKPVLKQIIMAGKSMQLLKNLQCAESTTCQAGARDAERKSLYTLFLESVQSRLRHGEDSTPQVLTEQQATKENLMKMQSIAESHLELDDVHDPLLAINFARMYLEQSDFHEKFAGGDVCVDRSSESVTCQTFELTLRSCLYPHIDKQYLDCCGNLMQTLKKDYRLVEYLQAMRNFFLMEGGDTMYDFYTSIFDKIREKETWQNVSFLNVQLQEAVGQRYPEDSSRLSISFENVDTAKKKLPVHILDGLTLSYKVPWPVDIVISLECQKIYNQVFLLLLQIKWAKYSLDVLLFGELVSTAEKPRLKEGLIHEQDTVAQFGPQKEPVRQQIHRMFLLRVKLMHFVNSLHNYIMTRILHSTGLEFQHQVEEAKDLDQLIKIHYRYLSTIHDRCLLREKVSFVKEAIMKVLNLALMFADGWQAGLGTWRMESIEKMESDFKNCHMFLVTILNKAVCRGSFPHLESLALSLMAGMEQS

Row | Target | melting temperature shift
1 | DDX11 (UniProt Q96FC9) | -2.61 °C
2 | PARK7 (UniProt Q99497) | -1.48 °C
3 | CNN2 (UniProt Q99439) | 0.287 °C
4 | CRBN (UniProt Q96SW2) | -0.744 °C
5 | C16ORF13 (UniProt Q96S19) | 0.305 °C
6 | NEK1 (UniProt Q96PY6) | -0.556 °C
7 | RBM14 (UniProt Q96PK6) | -0.122 °C
8 | CAMKK2 (UniProt Q96RR4) | -0.671 °C
9 | TCF12 (UniProt Q99081) | -0.404 °C
10 | MOCOS (UniProt Q96EN8) | -0.979 °C
11 | SCYL1 (UniProt Q96KG9) | 0.916 °C
12 | PCYT2 (UniProt Q99447) | -0.597 °C
13 | O15320 (UniProt Q96PC5) | -0.195 °C
14 | NSMCE3 (UniProt Q96MG7) | 0.336 °C
15 | UniProt Q96LT7 | -2.03 °C
16 | PIGS (UniProt Q96S52) | 0.423 °C
17 | PURB (UniProt Q96QR8) | -0.805 °C
18 | RANBP9 (UniProt Q96S59) | 0.684 °C
19 | SNX27 (UniProt Q96L92) | -0.819 °C

Row | Target | melting temperature shift
20 | VMP1 (UniProt Q96GC9) | -0.721 °C
21 | UniProt Q96L91 | -4.81 °C
22 | ERGIC2 (UniProt Q96RQ1) | -1.37 °C
23 | DDRGK1 (UniProt Q96HY6) | -1.27 °C
24 | WRNIP1 (UniProt Q96S55) | -0.359 °C
25 | OTUD5 (UniProt Q96G74) | -0.482 °C
26 | NSL1 (UniProt Q96IY1) | -0.361 °C
27 | INPP4A (UniProt Q96PE3) | -0.228 °C
28 | SLC38A2 (UniProt Q96QD8) | -1.56 °C
29 | UniProt Q96QZ7 | 0.849 °C
30 | PEO1 (UniProt Q96RR1) | 0.311 °C
31 | UniProt Q99418 | -2.01 °C
32 | WDR89 (UniProt Q96FK6) | -1.61 °C
33 | UniProt Q96L58 | -1.03 °C
34 | UniProt Q96LZ7 | 0.733 °C
35 | TMEM68 (UniProt Q96MH6) | -1.37 °C
36 | TUBGCP5 (UniProt Q96RT8) | -0.366 °C
37 | UniProt Q96NB2 | -0.738 °C

Same assay, conditions: A375; MBE1 concentration: 1 uM

Row | Target | melting temperature shift
38 | DDX11 (UniProt Q96FC9) | 0.501 °C
39 | PARK7 (UniProt Q99497) | -0.837 °C
40 | CNN2 (UniProt Q99439) | 0.501 °C
41 | CRBN (UniProt Q96SW2) | 1.15 °C
42 | C16ORF13 (UniProt Q96S19) | -0.116 °C
43 | NEK1 (UniProt Q96PY6) | -0.763 °C
44 | RBM14 (UniProt Q96PK6) | -0.0932 °C
45 | CAMKK2 (UniProt Q96RR4) | 0.449 °C
46 | TCF12 (UniProt Q99081) | -0.583 °C
47 | MOCOS (UniProt Q96EN8) | -0.121 °C
48 | SCYL1 (UniProt Q96KG9) | 0.226 °C
49 | PCYT2 (UniProt Q99447) | 0.342 °C
50 | O15320 (UniProt Q96PC5) | -0.44 °C
51 | NSMCE3 (UniProt Q96MG7) | 0.543 °C
52 | UniProt Q96LT7 | -0.352 °C
53 | PIGS (UniProt Q96S52) | 0.376 °C
54 | PURB (UniProt Q96QR8) | 0.519 °C
55 | RANBP9 (UniProt Q96S59) | 0.153 °C
56 | SNX27 (UniProt Q96L92) | -0.0988 °C

Row | Target | melting temperature shift
57 | VMP1 (UniProt Q96GC9) | -1.42 °C
58 | UniProt Q96L91 | -5.03 °C
59 | ERGIC2 (UniProt Q96RQ1) | 0.228 °C
60 | DDRGK1 (UniProt Q96HY6) | 0.843 °C
61 | WRNIP1 (UniProt Q96S55) | -0.416 °C
62 | OTUD5 (UniProt Q96G74) | -0.0794 °C
63 | NSL1 (UniProt Q96IY1) | -0.193 °C
64 | INPP4A (UniProt Q96PE3) | 0.236 °C
65 | SLC38A2 (UniProt Q96QD8) | -0.59 °C
66 | UniProt Q96QZ7 | -0.0611 °C
67 | PEO1 (UniProt Q96RR1) | -0.0916 °C
68 | UniProt Q99418 | -0.211 °C
69 | WDR89 (UniProt Q96FK6) | 0.0738 °C
70 | UniProt Q96L58 | -0.389 °C
71 | UniProt Q96LZ7 | -0.0672 °C
72 | TMEM68 (UniProt Q96MH6) | 0.36 °C
73 | TUBGCP5 (UniProt Q96RT8) | -0.885 °C
74 | UniProt Q96NB2 | -0.101 °C

— the supplement of paper PMC12595434, “Development of retinoid nuclear receptor pathway antagonists through targeting aldehyde dehydrogenase 1A3” (iScience, 2025)
